Data as given in the supplement of paper PMC8728848.
The other results are listed elsewhere or left out.

Columns and labels:
Experiment in all cases: glycan array binding signal (z-score within array); higher = stronger binding
Conditions in all cases: glycan notation: IUPAC condensed, linker removed
[1] = biological target: Gal(a1-3)Gal(b1-4)GlcNAc
How it was run: (§1)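 Columns mapping to the same glycan were averaged after glycan names were converted to IUPAC-condensed notation. The data come from 3228 arrays in the Consortium for Functional Glycomics database, limited to those with an available protein sequence. Binding is reported as a within-array Z-score averaged across arrays of one protein sequence and across linkers.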

[2] = biological target: Gal(a1-3)Gal(b1-4)GlcNAc(b1-2)Man
How it was run: as §1

[3] = biological target: Gal(a1-3)Gal(b1-4)GlcNAc(b1-2)Man(a1-3)[Gal(a1-3)Gal(b1-4)GlcNAc(b1-2)Man(a1-6)]Man(b1-4)GlcNAc(b1-4)GlcNAc
How it was run: as §1

[4] = biological target: Gal(a1-3)Gal(b1-4)GlcNAc(b1-3)GalNAc
How it was run: as §1

[5] = biological target: Gal(a1-3)Gal(b1-4)GlcNAc(b1-6)GalNAc
How it was run: as §1

[6] = biological target: Gal(a1-3)Gal(b1-4)[Fuc(a1-3)]GlcNAc
How it was run: as §1

[7] = biological target: Gal(a1-3)Gal(b1-4)[Fuc(a1-3)]GlcNAc(b1-2)Man(a1-3)[Gal(a1-3)Gal(b1-4)[Fuc(a1-3)]GlcNAc(b1-2)Man(a1-6)]Man(b1-4)GlcNAc(b1-4)GlcNAc
How it was run: as §1

[8] = biological target: Gal(a1-3)GalNAc
How it was run: as §1

[9] = biological target: Gal(a1-3)[Gal(a1-4)]Gal(b1-4)GlcNAc
How it was run: as §1

[10] = biological target: Gal(a1-4)Gal(b1-3)GlcNAc(b1-2)Man(a1-3)[Gal(a1-4)Gal(b1-3)GlcNAc(b1-2)Man(a1-6)]Man(b1-4)GlcNAc(b1-4)GlcNAc
How it was run: as §1

[11] = biological target: Gal(a1-4)Gal(b1-4)Glc
How it was run: as §1

[12] = biological target: Gal(a1-4)Gal(b1-4)GlcNAc
How it was run: as §1

[13] = biological target: Gal(a1-4)Gal(b1-4)GlcNAc(b1-2)Man(a1-3)[Gal(a1-4)Gal(b1-4)GlcNAc(b1-2)Man(a1-6)]Man(b1-4)GlcNAc(b1-4)GlcNAc
How it was run: as §1

[14] = biological target: Gal(a1-4)Gal(b1-4)GlcNAc(b1-3)Gal(b1-4)Glc
How it was run: as §1

[15] = biological target: Gal(a1-4)GlcNAc
How it was run: as §1

[16] = biological target: Gal(a1-6)Glc
How it was run: as §1

[17] = biological target: Gal(b1-2)Gal
How it was run: as §1

[18] = biological target: Gal(b1-3)Gal
How it was run: as §1

[19] = biological target: Gal(b1-3)Gal(b1-4)GlcNAc
How it was run: as §1

[20] = biological target: Gal(b1-3)GalNAc
How it was run: as §1

[21] = biological target: Gal(b1-3)GalNAc(a1-3)[Fuc(a1-2)]Gal(b1-4)Glc
How it was run: as §1

[22] = biological target: Gal(b1-3)GalNAc(a1-3)[Fuc(a1-2)]Gal(b1-4)GlcNAc
How it was run: as §1

[23] = biological target: Gal(b1-3)GalNAc(b1-3)Gal
How it was run: as §1

[24] = biological target: Gal(b1-3)GalNAc(b1-3)Gal(a1-4)Gal(b1-4)Glc
How it was run: as §1

[25] = biological target: Gal(b1-3)GalNAc(b1-4)Gal(b1-4)Glc
How it was run: as §1

[26] = biological target: Gal(b1-3)GalNAc(b1-4)[Neu5Ac(a2-3)]Gal(b1-4)Glc
How it was run: as §1

[27] = biological target: Gal(b1-3)GlcNAc
How it was run: as §1

[28] = biological target: Gal(b1-3)GlcNAc(a1-3)Gal(b1-4)GlcNAc
How it was run: as §1

[29] = biological target: Gal(b1-3)GlcNAc(a1-6)Gal(b1-4)GlcNAc
How it was run: as §1

[30] = biological target: Gal(b1-3)GlcNAc(b1-2)Man
How it was run: as §1

[31] = biological target: Gal(b1-3)GlcNAc(b1-2)Man(a1-3)[Gal(b1-3)GlcNAc(b1-2)Man(a1-6)]Man(b1-4)GlcNAc(b1-4)GlcNAc
How it was run: as §1

[32] = biological target: Gal(b1-3)GlcNAc(b1-2)Man(a1-3)[Gal(b1-3)GlcNAc(b1-2)Man(a1-6)]Man(b1-4)GlcNAc(b1-4)[Fuc(a1-6)]GlcNAc
How it was run: as §1

[33] = biological target: Gal(b1-3)GlcNAc(b1-2)Man(a1-3)[GlcNAc(b1-4)][Gal(b1-3)GlcNAc(b1-2)Man(a1-6)]Man(b1-4)GlcNAc(b1-4)GlcNAc
How it was run: as §1

[34] = biological target: Gal(b1-3)GlcNAc(b1-2)[Gal(b1-3)GlcNAc(b1-6)]Man(a1-6)[Gal(b1-3)GlcNAc(b1-2)Man(a1-3)]Man(b1-4)GlcNAc(b1-4)GlcNAc
How it was run: as §1

[35] = biological target: Gal(b1-3)GlcNAc(b1-3)Gal(b1-3)GlcNAc
How it was run: as §1

[36] = biological target: Gal(b1-3)GlcNAc(b1-3)Gal(b1-4)Glc
How it was run: as §1

[37] = biological target: Gal(b1-3)GlcNAc(b1-3)Gal(b1-4)GlcNAc
How it was run: as §1

[38] = biological target: Gal(b1-3)GlcNAc(b1-3)Gal(b1-4)GlcNAc(b1-2)Man(a1-3)[Gal(b1-3)GlcNAc(b1-3)Gal(b1-4)GlcNAc(b1-2)Man(a1-6)]Man(b1-4)GlcNAc(b1-4)GlcNAc
How it was run: as §1

[39] = biological target: Gal(b1-3)GlcNAc(b1-3)Gal(b1-4)GlcNAc(b1-2)[Gal(b1-3)GlcNAc(b1-3)Gal(b1-4)GlcNAc(b1-6)]Man(a1-6)[Gal(b1-3)GlcNAc(b1-3)Gal(b1-4)GlcNAc(b1-2)Man(a1-3)]Man(b1-4)GlcNAc(b1-4)[Fuc(a1-6)]GlcNAc
How it was run: as §1

[40] = biological target: Gal(b1-3)GlcNAc(b1-3)Gal(b1-4)GlcNAc(b1-3)Gal(b1-4)GlcNAc(b1-2)[Gal(b1-3)GlcNAc(b1-3)Gal(b1-4)GlcNAc(b1-3)Gal(b1-4)GlcNAc(b1-6)]Man(a1-6)[Gal(b1-3)GlcNAc(b1-3)Gal(b1-4)GlcNAc(b1-3)Gal(b1-4)GlcNAc(b1-2)Man(a1-3)]Man(b1-4)GlcNAc(b1-4)[Fuc(a1-6)]GlcNAc
How it was run: as §1

[41] = biological target: Gal(b1-3)GlcNAc(b1-3)Gal(b1-4)GlcNAc(b1-6)[Gal(b1-3)GlcNAc(b1-3)]Gal(b1-4)Glc
How it was run: as §1

[42] = biological target: Gal(b1-3)GlcNAc(b1-3)Gal(b1-4)[Fuc(a1-3)]GlcNAc
How it was run: as §1

[43] = biological target: Gal(b1-3)GlcNAc(b1-3)Gal(b1-4)[Fuc(a1-3)]GlcNAc(b1-6)[Gal(b1-3)GlcNAc(b1-3)]Gal(b1-4)Glc
How it was run: as §1

[44] = biological target: Gal(b1-3)GlcNAc(b1-3)GalNAc
How it was run: as §1

[45] = biological target: Gal(b1-3)GlcNAc(b1-6)Gal(b1-4)GlcNAc
How it was run: as §1

B1: Epa11 (Candida glabrata) (protein)
chain: MGSSHHHHHHSSGLVPRGSHMASSNAPNYPVGCSPSVGTQLTPGLSLEVYAYPMDGNNGYCWNATYKDPEFPRSGYLKNKLLGKADGVVGPLNFLAKNKDCSPKVDTLPAGFNFPQPITVTNFTMVLFGYLAPKQSGKYTFKLLADDLLLLNLGATNAFDCCNREATKNNLGEFLAYNLWPNQDKNVTVYLEKGVYYPLRLFFNNRDGGSQLDFSYYFNDSPAPLTDFSGMFFSVPDGAECPARI
glycan array binding signal (z-score) [1]: 0.391
glycan array binding signal (z-score) [2]: 0.295
glycan array binding signal (z-score) [3]: 1.5
glycan array binding signal (z-score) [4]: 0.608
glycan array binding signal (z-score) [5]: 0.676
glycan array binding signal (z-score) [6]: 0.242
glycan array binding signal (z-score) [7]: 1.44
glycan array binding signal (z-score) [8]: 0.558
glycan array binding signal (z-score) [9]: -0.22
glycan array binding signal (z-score) [10]: 1.7
glycan array binding signal (z-score) [11]: -0.311
glycan array binding signal (z-score) [12]: 0.12
glycan array binding signal (z-score) [13]: 0.138
glycan array binding signal (z-score) [14]: -0.48
glycan array binding signal (z-score) [15]: 1.12
glycan array binding signal (z-score) [16]: 1.6
glycan array binding signal (z-score) [17]: -0.377
glycan array binding signal (z-score) [18]: -0.015
glycan array binding signal (z-score) [19]: -0.445
glycan array binding signal (z-score) [20]: -0.012
glycan array binding signal (z-score) [21]: 0.498
glycan array binding signal (z-score) [22]: 0.575
glycan array binding signal (z-score) [23]: -0.185
glycan array binding signal (z-score) [24]: -0.286
glycan array binding signal (z-score) [25]: -0.851
glycan array binding signal (z-score) [26]: -0.305
glycan array binding signal (z-score) [27]: -0.003
glycan array binding signal (z-score) [28]: 0.848
glycan array binding signal (z-score) [29]: -0.399
glycan array binding signal (z-score) [30]: 1.14
glycan array binding signal (z-score) [31]: -0.179
glycan array binding signal (z-score) [32]: -0.006
glycan array binding signal (z-score) [33]: -0.064
glycan array binding signal (z-score) [34]: -0.365
glycan array binding signal (z-score) [35]: -0.623
glycan array binding signal (z-score) [36]: -0.214
glycan array binding signal (z-score) [37]: -0.623
glycan array binding signal (z-score) [38]: -0.34
glycan array binding signal (z-score) [39]: 0.613
glycan array binding signal (z-score) [40]: 0.496
glycan array binding signal (z-score) [41]: 0.112
glycan array binding signal (z-score) [42]: 0.446
glycan array binding signal (z-score) [43]: -0.626
glycan array binding signal (z-score) [44]: -0.639
glycan array binding signal (z-score) [45]: -0.407
